The chains behind the UniProt entries cited, without tags or fusion partners. Where a name states a change or a piece, a line headed by the entry shows the natural chain unless it says otherwise.
UniProt P18054: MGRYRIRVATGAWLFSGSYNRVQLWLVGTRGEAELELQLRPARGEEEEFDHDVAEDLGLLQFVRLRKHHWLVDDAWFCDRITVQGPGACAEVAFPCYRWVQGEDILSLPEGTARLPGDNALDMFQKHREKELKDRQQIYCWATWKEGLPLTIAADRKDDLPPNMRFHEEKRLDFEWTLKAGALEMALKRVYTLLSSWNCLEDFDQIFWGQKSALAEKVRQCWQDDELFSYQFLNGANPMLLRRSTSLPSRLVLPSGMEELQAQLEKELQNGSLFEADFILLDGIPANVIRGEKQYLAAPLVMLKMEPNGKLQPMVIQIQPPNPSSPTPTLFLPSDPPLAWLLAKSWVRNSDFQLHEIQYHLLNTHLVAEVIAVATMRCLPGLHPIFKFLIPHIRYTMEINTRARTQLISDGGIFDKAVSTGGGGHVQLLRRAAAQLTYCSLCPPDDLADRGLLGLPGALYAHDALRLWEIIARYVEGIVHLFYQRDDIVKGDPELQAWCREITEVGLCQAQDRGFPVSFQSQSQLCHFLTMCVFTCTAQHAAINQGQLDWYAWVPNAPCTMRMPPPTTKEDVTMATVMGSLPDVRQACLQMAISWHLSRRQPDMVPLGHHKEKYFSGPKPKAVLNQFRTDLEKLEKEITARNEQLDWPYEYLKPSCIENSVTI

Out of some 580,000 compounds screened, about 6,100 (1.1%) were called active. Inconclusive results, whose numbers are uncertain, are shown with a selection of clear calls. The call rests on the fitted dose curve; in most records, active means well fitted inhibition curve with a large enough effect; inconclusive means small, poorly fitted or top-dose-only effect, or another doubt; inactive means no such curve, though single readings can be large or run the other way. A potency beside an inconclusive call is a rough fit, not a confirmed value.
Each molecule was assayed against Polyunsaturated fatty acid lipoxygenase ALOX12 (Homo sapiens) (UniProt P18054) (assay: Primary qHTS assay for inhibitors of human arachidonate 12S-lipoxygenase (ALOX12): Round 2). Details: purified 12hLO, xylenol orange hydroperoxide absorbance; series mostly up to 108 µM.
How it was run: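 Purified human 12hLO at 150 nM in 25 mM Hepes, 0.01% Triton X-100, pH 7.0, preincubated 15 min at room temperature with compound. Reaction started with 40 uM arachidonic acid, 30 min at room temperature. Hydroperoxide measured by Fe-xylenol orange, 573/405 nm absorbance ratio.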
For COc1cccc(C2c3c(-c4c(C)cc(C)cc4O)n[nH]c3C(=O)N2CCCO)c1 (configuration not stated), the Potency was inconclusive: 70.8 µM [inhibitor, single point]. For COc1cc(C)ccc1OCCSc1nc2ccc(NC(=O)c3cccs3)cc2s1, the Potency was “inactive”. With CCc1ccccc1NC(=O)c1ccc2c(c1)NC(=O)CS2 the Potency was inconclusive: 50.1 µM [inhibitor, partial curve, poor fit]. For CC(=O)c1ccc(N2CCN(C(=O)c3ccc4c(=O)n(-c5ccccc5)c(=O)[nH]c4c3)CC2)cc1, the Potency was inconclusive: 0.501 µM [inhibitor, full curve, poor fit]. O=P(Cc1cc(Br)cc(Br)c1OCCO)(c1ccccc1)c1ccccc1 was tested, and the Potency was inconclusive: 112 µM [inhibitor, single point]. O=C(NC(=S)Nc1ccc(Cl)cn1)C12CC3CC(CC(C3)C1)C2 was tested, and the Potency was inconclusive: 44.7 µM [inhibitor, partial curve, poor fit]. In the case of CCCCn1nc(C(=O)NCC(c2cccs2)N2CCOCC2)c2ccccc2c1=O (configuration not stated), the Potency was “inactive”. With CN(C)Cc1nnc(C2CC(NC(=O)c3ccc4nccn4c3)C2)n1C (configuration not stated) the Potency was inconclusive: 10 µM [inhibitor, full curve]. With COc1cccc(CC2(CO)CCCN(c3ccc(-c4nccn4C)nn3)C2)c1 (configuration not stated) the Potency was “inactive”. In the case of CCCCCn1c(=O)c(Cc2ccccc2)c(O)c2ccccc21, the Potency was “inactive”. For COC(=O)c1cccc(NC(=S)Nc2cccc(Cl)c2C)c1, the Potency was inconclusive: 39.8 µM [inhibitor, partial curve]. In the case of COc1cccc2cc(-c3nnc(SCC(=O)Nc4ccc(NC(C)=O)cc4)n3C)oc12, the Potency was inconclusive: 141 µM [inhibitor, partial curve, poor fit]. Cc1cc2oc(=O)cc(CSc3nc(N)cc(N)n3)c2cc1C(C)C was tested, and the Potency was inconclusive: 89.1 µM [inhibitor, partial curve, poor fit]. COc1cc(OC)cc(C(=O)NCC2CCCN(Cc3cnn(C)c3C)C2)c1 (configuration not stated) was tested, and the Potency was inconclusive: 100 µM [inhibitor, single point]. For CCOc1ccc(NC(=S)N2CCN(S(=O)(=O)c3ccc(C)cc3)CC2)cc1, the Potency was inconclusive: 39.8 µM [inhibitor, single point]. For Cc1ccc(S(=O)(=O)N2C[C@H]3[C@H]4C(=O)N(C)C(=O)[C@H]4CC(=O)[C@H]3[C@@H]2c2ccccc2Cl)cc1, the Potency was inconclusive: 141 µM [inhibitor, single point]. COC1=NC(=C(c2ccccc2)c2ccccc2)OC1=O was tested, and the Potency was inconclusive: 20 µM [inhibitor, partial curve].
Potency means the concentration at half of the fitted maximal effect.
